# Measured values as given in the supplement of paper PMC3334620.
# Whole data set: some 33,000 sequences, median “E-score (-0.5 to 0.5)” near -8e-05, cut for the highest 2% near 0.23. Some of the results follow.
# Biological target: T1, Nrg2 (UniProt P38082)
# T1 sequence: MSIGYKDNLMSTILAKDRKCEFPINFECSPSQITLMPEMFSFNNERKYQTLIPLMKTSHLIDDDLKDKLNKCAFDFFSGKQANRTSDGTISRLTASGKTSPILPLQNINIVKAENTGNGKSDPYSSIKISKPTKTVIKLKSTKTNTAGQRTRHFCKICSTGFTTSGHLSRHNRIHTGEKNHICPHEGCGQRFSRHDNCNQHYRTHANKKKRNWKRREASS
# Assay: PBM E-score (8-mer binding enrichment) (E-score (-0.5 to 0.5)); higher = stronger / more preferred TF binding
# Details: protein concentration: 100 nM; construct: GST-full length
# Procedure, shortened: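 Masliner-normalised scans of fluorescent anti-GST signal were the basis for scoring. That signal came from GST-tagged yeast transcription factors applied at about 100-200 nM to double-stranded universal all-10-mer Agilent arrays on fresh or once-stripped slides. Each ungapped eight-base word, pooled with its reverse complement, received an E-score from the Universal PBM Analysis Suite.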
row,Sequence,PBM E-score
1,ATATGTTG,0.158
2,CTACCAAG,-0.0494
3,AGCGTACT,0.00264
4,AAGGCCAG,0.099
5,GCAGTACA,-0.0025
6,TACTTGAA,-0.128
7,AGACCAAT,-0.00568
8,AGGGCGGG,0.06
9,GGATTACA,-0.0643
10,ACACACAC,0.0306
11,CGAGAATA,0.16
12,TGAGAACA,0.133
13,GAAGGGGC,-0.226
14,CGAAGTAC,0.103
15,CATCTTGG,-0.0269
16,CATCGGCA,-0.11
17,AGTGATAT,0.139
18,ATCCGCTC,-0.138
19,ATCGCCAT,0.0989
20,GTCGCGTA,0.147
21,AAACGCGA,0.0518
22,AAGCGAGT,0.0804
23,ACTTATAG,-0.194
24,ATAAAGAC,-0.0651
25,ATTAAAAG,0.103

row,Sequence,PBM E-score
1,AATAGAGG,-0.0108
2,AAGTTTGG,0.0644
3,ATCTTACG,-0.0429
4,CCGCCGAG,0.01
5,AACTGCGG,0.00917
6,CGACAACG,-0.0823
7,ATTAACGA,0.128
8,AACATGTC,-0.00819
9,GACAGACA,0.248
10,ATTATCTG,-0.0132
11,ATTGCGGC,-0.024
12,AGTTTATC,0.116
13,CTTTGCCA,0.0655
14,CTGGAGGC,0.0336
15,CCCGGGAA,-0.0196
16,AATTCTTA,0.0329
17,CCATCGTA,0.122
18,ATTCGGGA,0.0112
19,ACCGCAAA,-0.0189
20,AGGTTAAC,0.149
21,GAACGAAA,0.178
22,CATTGACG,-0.0426
23,CCGTAGCA,-0.175
24,ACCTTTGC,0.0694
25,ATAGAGTC,-0.134

row,Sequence,PBM E-score
1,GGTACTTA,-0.109
2,CCAGTGGG,-0.192
3,ACACGTCC,-0.254
4,CCGTCCGA,-0.257
5,CCGGGAAG,-0.0756
6,AAGATCGC,-0.0829
7,CGATACAG,0.053
8,CCAATTTC,0.18
9,AGAGTATG,-0.178
10,CAGTAGCC,-0.226
11,AAATCGCT,-0.165
12,CACGAACC,0.085
13,AACATGAT,0.0649
14,AAACACAC,0.106
15,TAATCCTA,-0.0418
16,AAGCGATC,-0.0176
17,ACCTACAT,0.00858
18,ACGGTACT,-0.0901
19,GGATAGAC,-0.199
20,GGGGCTAC,-0.135
21,CGCAAGAG,0.123
22,GATAGGAC,-0.218
23,ACATCACT,0.0115
24,CATCAACG,0.0557
25,GGGTTAGA,-0.0759

# 4 entries drawn at random from the list so far, as already listed:
row,Sequence,PBM E-score
1,GGTACTTA,-0.109
10,CAGTAGCC,-0.226
8,CCAATTTC,0.18
12,CACGAACC,0.085

# Going on with the list.

row,Sequence,PBM E-score
1,CAGCAATC,0.0368
2,TGGTACCA,0.172
3,ACGACATG,0.113
4,CTATTCAC,0.0524
5,AAAACCCG,0.202
6,CAAGAAGA,0.126
7,AAGAGTGT,-0.153
8,CAAAAACC,0.141
9,GCATTACA,0.152
10,CTCGCACA,0.106
11,GCTGGGGA,-0.0446
12,CTGACAGC,0.0539
13,CCAAAGTC,-0.0327
14,CGTTTTGC,-0.0176
15,GGCTGGAA,-0.0294
16,ATGTGTCC,0.0056
17,AACTAAGT,0.168
18,CGTGAGAG,-0.184
19,GGCCAAGA,-0.249
20,CCTTCACG,0.00598
21,CCCTGCAG,0.26
22,CTCGATGC,0.0943
23,GGCTACTA,0.0202
24,ACGATCAT,0.00749
25,CAGACAGA,0.117

row,Sequence,PBM E-score
1,CATCCCAA,-0.0514
2,GGTACGAC,-0.117
3,ACTTTCAG,-0.00105
4,GCACTCCA,-0.0773
5,CACTCCGC,0.0303
6,GCCGAGAC,-0.00484
7,CATATCTC,0.0747
8,CGGGATCA,-0.135
9,AAGTACGT,0.00281
10,ATCGCTTG,-0.0476
11,AGCCCAAT,-0.0858
12,ACGAATGC,-0.0388
13,GTCGGCAC,-0.13
14,ACTTTTCA,0.145
15,CCTTTGTA,-0.0822
16,CCACTGGG,-0.162
17,AGGCAATC,0.102
18,AAAATAAC,-0.118
19,AGCACACG,-0.151
20,CACGTGAA,0.035
21,CGCCGAAA,0.00516
22,CGGACATC,-0.12
23,TATGGAAA,0.0537
24,CCTACTAG,0.00257
25,CAGGATCA,0.0604

row,Sequence,PBM E-score
1,CAGGGTAA,0.215
2,GGTCAAGA,0.0338
3,AGTGGATC,0.0256
4,ATATGGCG,0.0752
5,CGCGGACC,0.14
6,GGCCCTTA,0.185
7,ACGTAATA,0.064
8,GCAACTCA,0.0464
9,CCGGCGAC,-0.186
10,ACAATAAC,0.174
11,AGGGTTCC,0.189
12,CTGAAGCA,0.0438
13,ACAAAAGG,4e-05
14,CCGCATCC,-0.0302
15,TAGCCTGA,-0.154
16,CTACCCAG,0.0371
17,CACTTAGG,-0.0865
18,ATTATAGA,0.0777
19,CAGGGGAG,-0.0725
20,CTCTTCGC,-0.121
21,CGGTTACG,-0.0776
22,CTCATAGC,-0.0958
23,ACTTGCCA,0.0732
24,ATGTGAGG,-0.0251
25,GAATTTTA,0.0447

# 7 consecutive records already listed, quoted:
row,Sequence,PBM E-score
9,CCGGCGAC,-0.186
10,ACAATAAC,0.174
11,AGGGTTCC,0.189
12,CTGAAGCA,0.0438
13,ACAAAAGG,4e-05
14,CCGCATCC,-0.0302
15,TAGCCTGA,-0.154

# The listing continues.

row,Sequence,PBM E-score
1,AGGGGGAT,-0.256
2,ACTAGAAC,0.134
3,ATTTATTC,0.0954
4,GATCGATA,0.107
5,GGTACATA,0.0645
6,GAAAACGC,-0.0982
7,CCACAGAA,0.00358
8,AACACGAT,0.0947
9,AATCGCAC,-0.165
10,ATTGGGTA,-0.0882
11,GTTTATCA,0.187
12,ACGCGTTA,0.0891
13,ACGAGTTG,-0.0425
14,GGAATGCA,0.077
15,AGTTAGAT,-0.092
16,AGAGACTG,-0.181
17,ACTCGCCA,0.0381
18,ACCGAGCA,0.0403
19,ATCACCGC,-0.00903
20,AACCTCGG,-0.0648
21,GGTTAGAC,0.0624
22,CTTAGAAA,-0.159
